Laboratory results: publication doi:10.1101/2020.12.16.422969
Results are given in words; binding and its absence hold for the method and conditions named. Binding seen in cells or lysates may run through a third protein. Some binding calls cover weakened binding; strength is not graded here.

By UniProt entry, the sequences of proteins in these tests, tags left out. Where a name states a change or a piece, a line headed by the entry shows the natural chain unless it says otherwise.
UniProt P28033, whole entry: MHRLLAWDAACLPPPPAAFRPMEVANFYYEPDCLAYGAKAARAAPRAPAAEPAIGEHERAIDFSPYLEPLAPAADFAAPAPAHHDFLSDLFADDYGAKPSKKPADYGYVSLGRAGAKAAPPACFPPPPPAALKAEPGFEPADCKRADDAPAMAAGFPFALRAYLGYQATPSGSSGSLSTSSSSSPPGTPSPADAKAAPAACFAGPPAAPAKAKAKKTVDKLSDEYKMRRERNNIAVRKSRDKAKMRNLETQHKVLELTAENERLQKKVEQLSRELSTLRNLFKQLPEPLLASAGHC
UniProt Q9UER7, whole entry: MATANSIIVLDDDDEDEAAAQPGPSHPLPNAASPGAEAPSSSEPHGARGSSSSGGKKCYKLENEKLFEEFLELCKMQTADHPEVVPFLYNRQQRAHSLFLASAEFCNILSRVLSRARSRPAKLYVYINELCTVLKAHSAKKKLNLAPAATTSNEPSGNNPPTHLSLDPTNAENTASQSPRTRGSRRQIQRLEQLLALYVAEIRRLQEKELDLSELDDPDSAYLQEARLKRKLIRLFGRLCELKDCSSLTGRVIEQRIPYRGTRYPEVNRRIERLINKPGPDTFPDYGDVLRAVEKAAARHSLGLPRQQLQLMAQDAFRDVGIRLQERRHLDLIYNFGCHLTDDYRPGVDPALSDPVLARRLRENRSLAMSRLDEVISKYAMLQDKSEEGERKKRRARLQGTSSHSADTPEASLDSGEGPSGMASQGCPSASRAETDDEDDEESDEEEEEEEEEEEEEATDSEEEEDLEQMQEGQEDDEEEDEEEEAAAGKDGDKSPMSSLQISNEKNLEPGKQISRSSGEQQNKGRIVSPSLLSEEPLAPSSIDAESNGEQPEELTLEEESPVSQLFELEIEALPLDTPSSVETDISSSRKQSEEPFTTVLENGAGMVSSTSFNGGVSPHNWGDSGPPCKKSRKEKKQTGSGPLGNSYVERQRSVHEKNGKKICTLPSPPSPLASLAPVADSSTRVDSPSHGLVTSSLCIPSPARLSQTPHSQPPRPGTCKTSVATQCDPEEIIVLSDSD

Tests used:
HA-C/EBPβ K133R = HA-C/EBPβ K133R (UniProt P28033); test: co-IP
[1] = target: HA-C/EBPβ WT (CCAAT/enhancer binding protein β, wild type) (UniProt P28033); test: co-IP

FLAG-DAXX (death domain-associated protein) (from UniProt Q9UER7 1-740)
binding (HA-C/EBPβ K133R): binds
binding [1]: binds
